Results as given in patent US9993464B2 (SANOFI, priority 2011, dated 2018).
This continues a long series; more values of the same kind are listed elsewhere.

Columns and labels:
[1] = Level of impurities in dependency on pH and repeated autoclaving (HPLC), Example 6; assay type: physicochemical
Protocol: The appropriate pH value was adjusted by using sodium hydroxide solution (1 M sodium hydroxide) or diluted hydrochloric acid (1 M hydrochloric acid). […] HP Zorbax SB-C18, 3.5 μm • Column material: stainless steel • Column length: 150 mm • Column internal diameter: 4.6 mm • Equilibration of the column: Column must be rinsed with mobile phase B (% B=25) for at least 60 minutes at a flow rate of 1 mL/min prior to sample injection. • Storage of the column: Column can be stored in acetonitrile/water=20/80 (v/v) Mobile Phase A […] The mobile phase was filtered through a 1.5 μm filter. Typically, add 500 mL of mobile phase A to 500 mL of acetonitrile. Mix and degas. [table] Procedure • Flow rate: 1 mL/min • Injection volume: 40 μl • Auto sampler temperature: Set autosampler temperature at +12° C. • Column temperature: […]

[2] = Level of impurities in dependency on Otamixaban concentration and autoclaving (HPLC), Example 7; assay type: physicochemical
From the text: The appropriate pH value was adjusted by using sodium hydroxide solution (1 M sodium hydroxide) or diluted hydrochloric acid (1 M hydrochloric acid).

## COC(=O)[C@H](Cc1cccc(C(=N)N)c1)[C@@H](C)NC(=O)c1ccc(-c2cc[n+]([O-])cc2)cc1 (mixture of isomers) [Otamixaban, Methyl (2R,3R)-2-{3-[amino(imino)methyl]benzyl}-3-{[4-(1-oxidopyridin-4-yl)benzoyl]amino}butanoate]
[1]; pH 2.5, number of autoclaving 3
  Increase of Formula II (carbamimidoyl-benzyl butyric acid): 0.79%
[1]; pH 3.0, number of autoclaving 0
  Increase of Formula II (carbamimidoyl-benzyl butyric acid): 0.08%
[1]; pH 3.0, number of autoclaving 1
  Increase of Formula II (carbamimidoyl-benzyl butyric acid): 0.18%
[1]; pH 3.0, number of autoclaving 2
  Increase of Formula II (carbamimidoyl-benzyl butyric acid): 0.26%
[1]; pH 3.0, number of autoclaving 3
  Increase of Formula II (carbamimidoyl-benzyl butyric acid): 0.36%
[2]; pH 4.2-4.3, 5 mg/mL, vial 5 mL, 20 min 123° C., number of autoclaving 0
  Increase of Formula III (carbamoyl-benzyl butyric acid methyl ester): 0.2%
[2]; pH 4.2-4.3, 5 mg/mL, vial 5 mL, 20 min 123° C., number of autoclaving 1
  Increase of Formula III (carbamoyl-benzyl butyric acid methyl ester): 0.9%
[2]; pH 4.2-4.3, 5 mg/mL, vial 5 mL, 20 min 123° C., number of autoclaving 2
  Increase of Formula III (carbamoyl-benzyl butyric acid methyl ester): 1.7%
[2]; pH 4.2-4.3, 5 mg/mL, vial 5 mL, 20 min 123° C., number of autoclaving 3
  Increase of Formula III (carbamoyl-benzyl butyric acid methyl ester): 2.5%
[2]; pH 4.2, 1 mg/mL, vial 50 mL, 20 min […] C., number of autoclaving 0
  Increase of Formula III (carbamoyl-benzyl butyric acid methyl ester): 0.4%
[2]; pH 4.2, 1 mg/mL, vial 50 mL, 20 min […] C., number of autoclaving 1
  Increase of Formula III (carbamoyl-benzyl butyric acid methyl ester): 1.3%
[2]; pH 4.2, 1 mg/mL, vial 50 mL, 20 min […] C., number of autoclaving 2
  Increase of Formula III (carbamoyl-benzyl butyric acid methyl ester): 2.3%
[2]; pH 4.2, 1 mg/mL, vial 50 mL, 25 min 125° C., number of autoclaving 0
  Increase of Formula III (carbamoyl-benzyl butyric acid methyl ester): 0.4%
[2]; pH 4.2, 1 mg/mL, vial 50 mL, 25 min 125° C., number of autoclaving 1
  Increase of Formula III (carbamoyl-benzyl butyric acid methyl ester): 1.3%
[2]; pH 4.2, 5 mg/mL, vial 5 mL, 20 min 123° C., number of autoclaving 0
  Increase of Formula III (carbamoyl-benzyl butyric acid methyl ester): 0.3%
[2]; pH 4.2, 5 mg/mL, vial 5 mL, 20 min 123° C., number of autoclaving 1
  Increase of Formula III (carbamoyl-benzyl butyric acid methyl ester): 1.0%
[2]; pH 4.2, 5 mg/mL, vial 5 mL, 20 min 123° C., number of autoclaving 2
  Increase of Formula III (carbamoyl-benzyl butyric acid methyl ester): 1.8%
[2]; pH 4.2, 5 mg/mL, vial 5 mL, 20 min 123° C., number of autoclaving 3
  Increase of Formula III (carbamoyl-benzyl butyric acid methyl ester): 2.6%
[2]; pH 4.2, 5 mg/mL, vial 50 mL, 25 min 125° C., number of autoclaving 0
  Increase of Formula III (carbamoyl-benzyl butyric acid methyl ester): 0.4%
[2]; pH 4.2, 5 mg/mL, vial 50 mL, 25 min 125° C., number of autoclaving 1
  Increase of Formula III (carbamoyl-benzyl butyric acid methyl ester): 1.4%
[2]; pH 4.2, 50 mg/mL, vial 5 mL, 20 min 123° C., number of autoclaving 0
  Increase of Formula III (carbamoyl-benzyl butyric acid methyl ester): 0.3%
[2]; pH 4.2, 50 mg/mL, vial 5 mL, 20 min 123° C., number of autoclaving 1
  Increase of Formula III (carbamoyl-benzyl butyric acid methyl ester): 1.1%
[2]; pH 4.2, 50 mg/mL, vial 5 mL, 20 min 123° C., number of autoclaving 2
  Increase of Formula III (carbamoyl-benzyl butyric acid methyl ester): 1.9%
[2]; pH 4.2, 50 mg/mL, vial 5 mL, 20 min 123° C., number of autoclaving 3
  Increase of Formula III (carbamoyl-benzyl butyric acid methyl ester): 2.7%
